Test results taken from US20260207704A1 (priority 2022, published 2026).
Strings that start with PEPTIDE1 are HELM notation: dots part the residues, brackets hold end groups and non-standard residues.

Assay: general procedure: Fmoc solid-phase peptide synthesis; Rink amide MBHA resin (0.51 mmol/g)
Details: whole synthesis, UV at, e.g., 210-400 nm, scale of the general procedure 13 mmol

Question: For “PEPTIDE1{[Ac].[PL3].D.[Npg].[B5].D.[3COOHF].[Aib].A.F.[TriAzLys].[PyrS2].[3Thi].[BztA].[sAla].A.[am]}$PEPTIDE1,PEPTIDE1,11:R3-15:R3|PEPTIDE1,PEPTIDE1,2:R3-5:R3|PEPTIDE1,PEPTIDE1,5:R4-12:R3$$$V2.0”, which “crude LC-MS purity” value is on record?
Answer: 82%
